Assay results reported in the supplement of paper PMC10849652.
The list shows a part of the results.

By UniProt entry, the sequences of proteins in these tests, tags left out. Where a name states a change or a piece, a line headed by the entry shows the natural chain unless it says otherwise.
UniProt Q9UI14, whole entry, looked up: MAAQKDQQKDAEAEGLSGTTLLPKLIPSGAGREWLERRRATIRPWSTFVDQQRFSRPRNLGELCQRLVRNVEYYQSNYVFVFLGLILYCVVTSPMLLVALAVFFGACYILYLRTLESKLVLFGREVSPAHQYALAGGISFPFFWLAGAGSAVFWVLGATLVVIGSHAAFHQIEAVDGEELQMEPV
UniProt P49756, whole entry, looked up: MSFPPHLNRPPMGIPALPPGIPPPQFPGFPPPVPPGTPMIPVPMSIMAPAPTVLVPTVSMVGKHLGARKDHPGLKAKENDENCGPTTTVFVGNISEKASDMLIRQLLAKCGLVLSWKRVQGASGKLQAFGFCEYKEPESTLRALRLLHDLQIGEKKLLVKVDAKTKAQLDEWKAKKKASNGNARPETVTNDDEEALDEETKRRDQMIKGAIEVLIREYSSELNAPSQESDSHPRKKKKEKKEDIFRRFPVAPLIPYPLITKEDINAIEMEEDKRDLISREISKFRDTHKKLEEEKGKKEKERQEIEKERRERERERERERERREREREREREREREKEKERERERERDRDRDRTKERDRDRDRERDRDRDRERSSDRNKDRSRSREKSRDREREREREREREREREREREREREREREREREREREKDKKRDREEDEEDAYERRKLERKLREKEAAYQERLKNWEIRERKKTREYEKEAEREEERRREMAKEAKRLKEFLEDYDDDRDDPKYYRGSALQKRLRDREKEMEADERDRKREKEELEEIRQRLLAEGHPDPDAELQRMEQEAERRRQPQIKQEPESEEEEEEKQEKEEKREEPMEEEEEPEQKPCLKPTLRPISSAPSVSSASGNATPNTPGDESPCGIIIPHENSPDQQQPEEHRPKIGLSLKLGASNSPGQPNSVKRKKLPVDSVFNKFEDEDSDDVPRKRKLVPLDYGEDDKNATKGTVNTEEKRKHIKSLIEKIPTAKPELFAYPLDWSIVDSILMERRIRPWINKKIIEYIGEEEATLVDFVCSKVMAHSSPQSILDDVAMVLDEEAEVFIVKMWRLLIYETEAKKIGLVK
UniProt Q8WUD1: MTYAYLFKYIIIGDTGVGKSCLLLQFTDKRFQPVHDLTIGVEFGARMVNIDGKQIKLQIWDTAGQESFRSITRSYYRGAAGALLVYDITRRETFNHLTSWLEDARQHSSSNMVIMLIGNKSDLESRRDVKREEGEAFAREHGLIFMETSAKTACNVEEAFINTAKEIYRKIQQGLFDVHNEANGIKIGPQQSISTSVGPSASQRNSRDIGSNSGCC
UniProt Q8TBN0: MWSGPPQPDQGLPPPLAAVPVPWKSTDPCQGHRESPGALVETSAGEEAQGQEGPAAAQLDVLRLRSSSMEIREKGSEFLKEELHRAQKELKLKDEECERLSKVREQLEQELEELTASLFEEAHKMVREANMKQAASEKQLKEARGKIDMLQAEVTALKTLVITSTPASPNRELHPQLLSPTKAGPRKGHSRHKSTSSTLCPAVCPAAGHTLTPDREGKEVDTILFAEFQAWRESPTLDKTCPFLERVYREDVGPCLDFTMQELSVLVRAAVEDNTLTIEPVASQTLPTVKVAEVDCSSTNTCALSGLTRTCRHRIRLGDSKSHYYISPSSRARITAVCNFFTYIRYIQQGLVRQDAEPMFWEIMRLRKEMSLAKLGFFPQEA
UniProt P06400: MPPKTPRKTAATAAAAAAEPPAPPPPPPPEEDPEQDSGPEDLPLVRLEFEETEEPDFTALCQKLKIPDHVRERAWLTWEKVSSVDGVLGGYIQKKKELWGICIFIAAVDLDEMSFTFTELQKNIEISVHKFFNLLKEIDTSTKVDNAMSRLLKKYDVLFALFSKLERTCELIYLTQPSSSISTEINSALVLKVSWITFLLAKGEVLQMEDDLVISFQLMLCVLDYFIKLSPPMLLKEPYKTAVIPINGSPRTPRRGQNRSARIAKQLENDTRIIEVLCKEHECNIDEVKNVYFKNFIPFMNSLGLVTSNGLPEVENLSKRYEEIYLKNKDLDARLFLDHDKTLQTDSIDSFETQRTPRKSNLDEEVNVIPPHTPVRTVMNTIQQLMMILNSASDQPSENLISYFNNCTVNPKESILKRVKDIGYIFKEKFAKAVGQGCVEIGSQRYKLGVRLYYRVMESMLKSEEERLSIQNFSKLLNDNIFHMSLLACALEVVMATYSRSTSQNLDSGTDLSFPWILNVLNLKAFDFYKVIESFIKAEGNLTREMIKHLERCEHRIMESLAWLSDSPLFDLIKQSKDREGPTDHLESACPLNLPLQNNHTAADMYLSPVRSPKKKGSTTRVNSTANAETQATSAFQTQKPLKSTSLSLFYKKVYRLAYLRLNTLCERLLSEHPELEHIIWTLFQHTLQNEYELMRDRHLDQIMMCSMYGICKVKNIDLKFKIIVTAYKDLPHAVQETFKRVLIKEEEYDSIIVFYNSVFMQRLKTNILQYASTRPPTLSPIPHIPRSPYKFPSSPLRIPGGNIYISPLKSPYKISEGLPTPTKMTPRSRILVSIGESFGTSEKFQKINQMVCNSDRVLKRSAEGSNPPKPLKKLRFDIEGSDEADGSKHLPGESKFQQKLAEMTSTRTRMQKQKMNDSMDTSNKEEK
UniProt P98179: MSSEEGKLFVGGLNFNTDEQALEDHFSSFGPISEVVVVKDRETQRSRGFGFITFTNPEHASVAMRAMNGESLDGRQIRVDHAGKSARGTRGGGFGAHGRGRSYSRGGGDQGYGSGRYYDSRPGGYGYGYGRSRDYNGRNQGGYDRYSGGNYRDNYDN
UniProt O60216: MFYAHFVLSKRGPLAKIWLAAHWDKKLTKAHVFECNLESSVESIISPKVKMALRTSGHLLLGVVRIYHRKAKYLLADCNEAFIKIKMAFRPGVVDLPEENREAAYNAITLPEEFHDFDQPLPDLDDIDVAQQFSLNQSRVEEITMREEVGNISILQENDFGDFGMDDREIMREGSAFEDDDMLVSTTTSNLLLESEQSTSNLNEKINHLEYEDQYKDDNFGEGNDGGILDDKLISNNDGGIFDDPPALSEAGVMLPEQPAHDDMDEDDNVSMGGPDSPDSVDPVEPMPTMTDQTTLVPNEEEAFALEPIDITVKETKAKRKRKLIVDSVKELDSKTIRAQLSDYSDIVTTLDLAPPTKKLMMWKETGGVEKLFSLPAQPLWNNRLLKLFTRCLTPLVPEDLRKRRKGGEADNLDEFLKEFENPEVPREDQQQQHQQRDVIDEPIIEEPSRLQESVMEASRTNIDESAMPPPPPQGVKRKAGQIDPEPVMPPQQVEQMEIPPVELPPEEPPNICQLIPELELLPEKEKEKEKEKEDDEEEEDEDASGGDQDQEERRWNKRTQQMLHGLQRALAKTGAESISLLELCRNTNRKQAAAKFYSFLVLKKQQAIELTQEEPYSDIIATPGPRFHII
UniProt O60671: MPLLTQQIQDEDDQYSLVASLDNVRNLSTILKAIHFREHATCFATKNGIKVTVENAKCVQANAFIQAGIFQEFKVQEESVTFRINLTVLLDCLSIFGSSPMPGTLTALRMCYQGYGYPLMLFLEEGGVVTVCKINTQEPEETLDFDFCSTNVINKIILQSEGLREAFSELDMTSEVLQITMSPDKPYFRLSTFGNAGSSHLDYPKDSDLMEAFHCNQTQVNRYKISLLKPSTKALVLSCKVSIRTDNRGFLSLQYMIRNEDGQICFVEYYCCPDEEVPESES
UniProt P51148: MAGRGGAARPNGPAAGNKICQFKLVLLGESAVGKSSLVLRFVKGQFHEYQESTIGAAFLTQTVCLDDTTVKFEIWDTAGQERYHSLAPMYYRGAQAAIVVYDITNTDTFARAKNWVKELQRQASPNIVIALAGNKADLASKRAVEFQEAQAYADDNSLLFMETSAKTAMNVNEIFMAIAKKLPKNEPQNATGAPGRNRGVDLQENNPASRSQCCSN
UniProt Q09028, whole entry, looked up: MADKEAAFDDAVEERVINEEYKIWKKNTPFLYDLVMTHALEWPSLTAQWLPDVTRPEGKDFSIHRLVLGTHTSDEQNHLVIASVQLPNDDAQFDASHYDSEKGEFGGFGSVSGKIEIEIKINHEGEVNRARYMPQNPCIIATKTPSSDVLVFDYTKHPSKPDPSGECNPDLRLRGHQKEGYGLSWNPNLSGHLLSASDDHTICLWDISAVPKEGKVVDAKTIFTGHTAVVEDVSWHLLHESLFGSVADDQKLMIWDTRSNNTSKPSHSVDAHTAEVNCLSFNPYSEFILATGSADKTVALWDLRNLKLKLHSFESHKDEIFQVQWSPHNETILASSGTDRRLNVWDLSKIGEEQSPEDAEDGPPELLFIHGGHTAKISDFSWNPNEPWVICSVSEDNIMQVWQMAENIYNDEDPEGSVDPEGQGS
UniProt P11234: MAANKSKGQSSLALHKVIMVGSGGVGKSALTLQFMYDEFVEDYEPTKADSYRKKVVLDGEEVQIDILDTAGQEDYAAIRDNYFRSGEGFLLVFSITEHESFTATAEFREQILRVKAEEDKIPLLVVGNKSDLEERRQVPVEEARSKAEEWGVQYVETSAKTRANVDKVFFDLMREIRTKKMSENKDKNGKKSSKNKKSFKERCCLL
UniProt P20336: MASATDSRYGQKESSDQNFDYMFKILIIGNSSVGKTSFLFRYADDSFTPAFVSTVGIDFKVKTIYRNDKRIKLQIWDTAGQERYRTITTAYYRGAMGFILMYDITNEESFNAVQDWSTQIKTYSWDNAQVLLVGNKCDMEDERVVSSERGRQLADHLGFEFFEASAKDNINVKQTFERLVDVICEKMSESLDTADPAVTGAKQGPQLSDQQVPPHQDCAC
UniProt P53611: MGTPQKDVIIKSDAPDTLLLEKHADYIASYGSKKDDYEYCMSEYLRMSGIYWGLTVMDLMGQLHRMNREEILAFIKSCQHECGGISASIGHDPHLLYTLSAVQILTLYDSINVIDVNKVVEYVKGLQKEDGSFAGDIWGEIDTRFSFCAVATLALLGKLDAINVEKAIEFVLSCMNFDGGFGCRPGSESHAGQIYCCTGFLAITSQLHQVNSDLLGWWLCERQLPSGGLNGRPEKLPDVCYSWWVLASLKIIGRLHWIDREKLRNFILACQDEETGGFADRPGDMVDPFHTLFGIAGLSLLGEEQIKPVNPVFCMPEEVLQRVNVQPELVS
UniProt P52306: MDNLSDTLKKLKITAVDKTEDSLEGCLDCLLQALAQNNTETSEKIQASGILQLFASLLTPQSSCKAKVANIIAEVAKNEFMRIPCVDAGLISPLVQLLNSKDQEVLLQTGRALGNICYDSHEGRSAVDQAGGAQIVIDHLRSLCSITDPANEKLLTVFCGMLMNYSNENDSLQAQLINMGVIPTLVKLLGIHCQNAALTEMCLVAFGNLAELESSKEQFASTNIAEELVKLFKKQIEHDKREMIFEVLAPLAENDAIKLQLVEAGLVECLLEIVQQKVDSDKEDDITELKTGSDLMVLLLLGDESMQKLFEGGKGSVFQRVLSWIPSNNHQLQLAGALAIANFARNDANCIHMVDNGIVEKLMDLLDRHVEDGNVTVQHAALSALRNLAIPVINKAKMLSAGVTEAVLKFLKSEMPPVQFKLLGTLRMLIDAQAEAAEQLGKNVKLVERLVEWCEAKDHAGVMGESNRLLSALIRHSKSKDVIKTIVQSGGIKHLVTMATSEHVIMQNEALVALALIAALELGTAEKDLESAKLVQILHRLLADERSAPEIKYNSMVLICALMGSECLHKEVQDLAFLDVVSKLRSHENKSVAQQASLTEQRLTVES
UniProt Q92930: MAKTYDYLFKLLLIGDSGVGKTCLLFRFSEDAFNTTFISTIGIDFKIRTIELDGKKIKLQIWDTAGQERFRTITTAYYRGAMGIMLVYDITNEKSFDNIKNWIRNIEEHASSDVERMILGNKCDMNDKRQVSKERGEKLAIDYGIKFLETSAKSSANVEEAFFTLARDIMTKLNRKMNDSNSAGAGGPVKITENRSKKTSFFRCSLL
UniProt P51151: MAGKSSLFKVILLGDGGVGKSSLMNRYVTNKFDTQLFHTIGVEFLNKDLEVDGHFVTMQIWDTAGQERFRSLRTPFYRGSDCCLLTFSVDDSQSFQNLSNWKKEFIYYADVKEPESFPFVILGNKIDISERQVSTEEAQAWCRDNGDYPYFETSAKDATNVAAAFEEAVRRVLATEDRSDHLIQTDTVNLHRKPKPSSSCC
UniProt Q9NW64: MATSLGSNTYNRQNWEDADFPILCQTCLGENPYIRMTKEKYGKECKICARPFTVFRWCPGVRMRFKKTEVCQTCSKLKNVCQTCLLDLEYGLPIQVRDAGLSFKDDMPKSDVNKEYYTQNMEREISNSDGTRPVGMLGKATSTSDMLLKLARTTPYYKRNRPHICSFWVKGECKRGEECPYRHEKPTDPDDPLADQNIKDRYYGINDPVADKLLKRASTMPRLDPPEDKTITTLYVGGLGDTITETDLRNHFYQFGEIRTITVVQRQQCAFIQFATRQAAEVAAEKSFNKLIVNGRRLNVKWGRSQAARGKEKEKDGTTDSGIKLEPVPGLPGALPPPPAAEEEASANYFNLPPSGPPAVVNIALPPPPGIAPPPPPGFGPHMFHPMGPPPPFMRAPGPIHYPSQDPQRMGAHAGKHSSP

What follows are targets tested with CCN(CC)Cc1ccc2cc(COC(=O)Nc3ccc(C(=O)NO)cc3)ccc2c1 [givinostat] (assay: log2 fold change, soluble protein after heating vs DMSO (PISA); higher = thermal stabilisation; K562 cells, 10 uM, 30 min; active = over 0.2 and 3.5 SD of the protein, either way, in both replicates (recomputed)).
Procedure, shortened: (§1)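 K562 cells at 2×10^6 cells/mL were treated with 10 μM compound for 30 min. Aliquots were heated for 3 min across 48°C-58°C, pooled, and extracted in PBS with 0.5% NP-40 at 4°C; soluble protein was the supernatant after 21,000xg for 90 min. Soluble protein was quantified by TMTpro 16plex LC-MS/MS with channel sums equalised, and reported as log2 fold change in thermal stability against DMSO controls, with values from duplicates.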

log2 fold change, inactive:
RABAC1 (UniProt Q9UI14) -0.039
RBM25 (UniProt P49756) 0.202
RAB2B (UniProt Q8WUD1) -0.009
RAB3IL1 (UniProt Q8TBN0) -0.024
RB1 (UniProt P06400) -0.02
RAB4B isoform 2 (UniProt P61018) -0.01
RAD18 (UniProt Q9NS91) 0.237
RBM3 (UniProt P98179) -0.054
RAD21 (UniProt O60216) 0.006
RAB14 (UniProt P61106) 0
RAD1 (UniProt O60671) -0.057
RAB6D (UniProt Q53S08) 0.057
RALGAPA1 isoform 6 (UniProt Q6GYQ0) 0.114
RAB5C isoform 2 (UniProt P51148) 0.006
RAN (UniProt P62826) -0.031
RBBP4 (UniProt Q09028) -0.02
RB1CC1 (UniProt Q8TDY2) 0.102
RANBP1 (UniProt P43487) -0.013
RAB31 (UniProt Q13636) -0.088
RBM27 (UniProt Q9P2N5) 0.013

Each target was assayed with CCN(CCCOc1ccc2c(Nc3cc(CC(=O)Nc4cccc(F)c4)[nH]n3)ncnc2c1)CCOP(=O)(O)O [barasertib] in the same assay as above.
Procedure, shortened: as §1

log2 fold change, inactive:
RALB isoform 2 (UniProt P11234) -0.018
RACK1 (UniProt P63244) -0.023
RAB11A (UniProt P62491) 0.018
RAB3A (UniProt P20336) -0.005
RABGGTB (UniProt P53611) 0.034
RAP1A (UniProt P62834) 0.021
RAP1GDS1 isoform 5 (UniProt P52306) 0.019
RANBP9 (UniProt Q96S59) 0.013
RAB8B (UniProt Q92930) -0.016
RAB9A (UniProt P51151) -0.011
RAPGEF2, A0A2R8YGD3 -0.037
RBM22 (UniProt Q9NW64) -0.006
RACK1 (UniProt D6RF23) 0.02
RABAC1 (UniProt Q9UI14) -0.031
RBM25 (UniProt P49756) 0.035
RAB2B (UniProt Q8WUD1) -0.032
RAB3IL1 (UniProt Q8TBN0) 0.015
RB1 (UniProt P06400) -0.004
RAB4B isoform 2 (UniProt P61018) -0.011
RAD18 (UniProt Q9NS91) 0.145
RBM3 (UniProt P98179) -0.019
RAD21 (UniProt O60216) 0
RAB14 (UniProt P61106) -0.024
RAD1 (UniProt O60671) 0
RAB6D (UniProt Q53S08) -0.013
RALGAPA1 isoform 6 (UniProt Q6GYQ0) 0.037
RAB5C isoform 2 (UniProt P51148) -0.031
RAN (UniProt P62826) -0.004
RBBP4 (UniProt Q09028) -0.025
RB1CC1 (UniProt Q8TDY2) -0.008
RANBP1 (UniProt P43487) 0.015
RAB31 (UniProt Q13636) -0.001
RBM27 (UniProt Q9P2N5) 0.009
